Measured values from publication PMC5336696, “Structural basis for potency differences between GDF8 and GDF11” (BMC Biology, 2017).
Results are given in words; binding and its absence hold for the method and conditions named. Binding calls can cover weak binding; strength is not graded here.

Target: T1, mature GDF8 of the wt latent complex (human) (UniProt O14793)
T1 sequence: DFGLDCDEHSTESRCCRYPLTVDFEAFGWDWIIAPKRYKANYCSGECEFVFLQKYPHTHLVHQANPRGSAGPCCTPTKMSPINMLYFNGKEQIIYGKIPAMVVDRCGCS
Experiment: SEC; latent prodomain:mature ligand complex from concentrated conditioned media of HEK293T cells co-transfected with furin, Superdex S200; peak analysed by SDS-PAGE

binding: binds
Substance: wt GDF8 prodomain (of the latent complex) (human) (domain or fragment)
